PubChem BioAssay AID1259308 | NCATS, 2017

- Assay: 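Candidate targets for better recombinant protein yield in mammalian cells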 (primary screen)
- Cells: human HEK293 embryonic kidney cells stably expressing firefly luciferase (HEK-CMV-Luc2-Hygro)
- Knock-down reagent: single siRNA against human genes, 0.8 pmol siRNA per well
- Timing: 72 h
- Measured: 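Reporter luminescence and viable-cell signal on separate replicate plates, given as percent of non-targeting control and median/MAD z-scores, plus per-cell luciferase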
- Reading the numbers: total luciferase, z-score and total luciferase, % of control: higher = more reporter protein produced; luciferase per cell, z-score: higher = more reporter output per viable cell; viable cells, % of control: higher = more viable cells
- Active means: 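Active when the median/MAD z-score for overall luciferase is greater than 3; a gene was taken forward for validation with new siRNAs if at least two of its three siRNAs passed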
- Calls: active = raised luciferase; inactive = no rise
This is an unselected part of about 59,000 reagents. About 1,510 of all reagents (2.6%) were called active. 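Calls use total luciferase alone and ignore viability, so some active siRNAs may act by altering cell number.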 Reagents against one gene are numbered here.

The first 2 records, to show the layout:
gene symbol,reagent no.,"total luciferase, z-score","total luciferase, % of control","luciferase per cell, z-score","viable cells, % of control",Call
KEAP1 (kelch like ECH associated protein 1),1,0.0855,83.6,-0.0665,95.1,inactive
KEAP1 (kelch like ECH associated protein 1),2,0.784,97.5,0.751,89.4,inactive

Main list, from the start:
gene symbol,reagent no.,"total luciferase, z-score","total luciferase, % of control","luciferase per cell, z-score","viable cells, % of control",Call
KEAP1 (kelch like ECH associated protein 1),1,0.0855,83.6,-0.0665,95.1,inactive
KEAP1 (kelch like ECH associated protein 1),2,0.784,97.5,0.751,89.4,inactive
KEAP1 (kelch like ECH associated protein 1),3,2.62,134,3.07,66.7,inactive
KEL (Kell metallo-endopeptidase (Kell blood group)),1,0.801,97.8,0.491,96,inactive
KEL (Kell metallo-endopeptidase (Kell blood group)),2,-0.992,62.2,-0.123,71.7,inactive
KEL (Kell metallo-endopeptidase (Kell blood group)),3,-0.182,78.3,-0.518,100,inactive
RLIG1 (RNA 5'-phosphate and 3'-OH ligase 1),1,0.772,97.2,0.975,84,inactive
RLIG1 (RNA 5'-phosphate and 3'-OH ligase 1),2,1.15,105,1.13,86.9,inactive
RLIG1 (RNA 5'-phosphate and 3'-OH ligase 1),3,-0.949,63,-0.77,86.2,inactive
PLAC4 (placenta associated 4),1,0.0497,82.9,-0.0506,93.9,inactive
PLAC4 (placenta associated 4),2,0.156,85,0.238,89.2,inactive
PLAC4 (placenta associated 4),3,-0.217,77.6,-0.0351,87.5,inactive
ARL8B (ARF like GTPase 8B),1,-0.315,75.6,-0.927,108,inactive
ARL8B (ARF like GTPase 8B),2,1.54,112,2.82,59.8,inactive
ARL8B (ARF like GTPase 8B),3,-0.138,79.1,0.401,79.6,inactive
SELENON (selenoprotein N),1,-0.324,75.4,-0.938,108,inactive
SELENON (selenoprotein N),2,0.638,94.6,-0.119,109,inactive
SELENON (selenoprotein N),3,0.259,87,-0.0675,99,inactive
LRRFIP2 (LRR binding FLII interacting protein 2),1,2.21,126,2.65,70,inactive
LRRFIP2 (LRR binding FLII interacting protein 2),2,0.383,89.5,1.89,60.8,inactive
LRRFIP2 (LRR binding FLII interacting protein 2),3,-0.899,64,-0.0111,71.7,inactive
NR0B1 (nuclear receptor subfamily 0 group B member 1),1,2.18,125,1.59,92.1,inactive
NR0B1 (nuclear receptor subfamily 0 group B member 1),2,-0.898,64,-0.917,91.1,inactive
NR0B1 (nuclear receptor subfamily 0 group B member 1),3,1.21,106,0.617,101,inactive
